Test results: paper PMC4218836

The chains behind the UniProt entries cited, without tags or fusion partners. Where a name states a change or a piece, a line headed by the entry shows the natural chain unless it says otherwise.
UniProt Q8C6B2: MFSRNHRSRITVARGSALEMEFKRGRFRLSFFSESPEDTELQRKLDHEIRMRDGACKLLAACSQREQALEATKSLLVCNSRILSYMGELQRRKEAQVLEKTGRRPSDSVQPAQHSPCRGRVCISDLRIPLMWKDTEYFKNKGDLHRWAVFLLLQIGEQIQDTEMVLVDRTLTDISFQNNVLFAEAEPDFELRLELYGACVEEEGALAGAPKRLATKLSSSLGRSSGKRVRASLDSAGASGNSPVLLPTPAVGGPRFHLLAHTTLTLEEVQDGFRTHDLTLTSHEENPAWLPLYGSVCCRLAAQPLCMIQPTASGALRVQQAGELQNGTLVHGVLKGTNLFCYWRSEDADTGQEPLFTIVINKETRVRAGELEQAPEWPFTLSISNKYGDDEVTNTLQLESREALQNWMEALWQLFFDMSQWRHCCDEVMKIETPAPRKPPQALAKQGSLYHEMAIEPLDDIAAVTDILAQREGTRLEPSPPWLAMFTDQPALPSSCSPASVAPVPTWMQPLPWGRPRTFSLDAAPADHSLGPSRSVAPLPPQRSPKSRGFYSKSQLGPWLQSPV
UniProt P61586: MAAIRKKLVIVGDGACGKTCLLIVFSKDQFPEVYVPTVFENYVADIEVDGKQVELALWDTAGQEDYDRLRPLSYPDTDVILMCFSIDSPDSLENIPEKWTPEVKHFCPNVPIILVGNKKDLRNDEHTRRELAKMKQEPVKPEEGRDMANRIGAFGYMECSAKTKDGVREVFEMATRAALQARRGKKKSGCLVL
UniProt P62745: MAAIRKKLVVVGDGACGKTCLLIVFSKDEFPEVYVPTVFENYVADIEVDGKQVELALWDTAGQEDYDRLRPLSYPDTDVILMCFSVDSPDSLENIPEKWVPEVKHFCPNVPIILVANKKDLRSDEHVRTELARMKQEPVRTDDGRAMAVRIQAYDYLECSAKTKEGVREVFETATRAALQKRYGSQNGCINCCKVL

Molecular target: GST fusion protein containing the Rho binding domain of rhotekin (UniProt Q8C6B2)
Test: pull-down; GST-pulldown: 10-20 µg of GST-RBD on beads with lysates of HeLa cells transfected with Myc-tagged XPLN (or GFP) or serum-starved and treated with EGF (2.5 ng/mL, 10 min); Western blot with anti-RhoA, anti-RhoB; only the target purified

Substance | binding
endogenous RhoA (from UniProt P61586 1-193) | binds
endogenous RhoB (from UniProt P62745 1-196) | binds

No constants are given. Whether binding was seen depends on the method and setting. Binding seen in cells or lysates may run through a third protein. Binding calls can cover weak binding; strength is not graded here.
